Data on 2 molecules can be found in patent US20090181898A1, “ABUSE-RESISTANT A[…]” (SHIRE LLC, priority 2002, published 2009).

The nature of the data set: Reactivity in the d-amphetamine ELISA (Amphetamine Ultra, Neogen). In general terms: An ELISA detects its analyte on a solid surface through an enzyme-linked reagent.

Turning to `[2H]Oc1ccc(CC(C)N)cc1` (stereo not drawn) [para-hydroxy-d-amphetamine, reference compound], the “Reactivity in the d-amphetamine ELISA” value was 0.6%.
Take L-lysine-d-amphetamine diHCl: the “Reactivity in the d-amphetamine ELISA” value is given as less than 1%.
